PubChem BioAssay AID186 (DTP/NCI, 2004)
Shown are survivors of the treated group in tumour-free mice. Counts of survivors are from the toxicity check (mostly the fifth day) where no day follows; animals may have died later. Schedule codes are those of the source, read here as Q, the interval in days (D) or hours (H), X, the number of doses. Some entries hold several experiments; their values stand side by side, smallest first.

Tested on: B6D2F1 mice, nontumored toxicity test, survival
Assay: NCI In Vivo Anticancer Drug Screen. Data for tumor model Nontumored Animals (Toxicity Test) in B6D2F1 (BDF1) mice
Details: vehicle: water

`C[n+]1ccc(Nc2ccc(NC(=O)c3ccc(Nc4cc[n+](C)c5ccc(N)cc45)cc3)cc2)cc1` was tested, and the survivor count (dose: 0.25 mg/kg/injection, schedule: Q03HX008 (ip)) was 8 of 8, the survivor count (dose: 0.25 mg/kg/injection, schedule: Q03HX016 (ip)) was 7 of 7 and 8 of 8 and the survivor count (dose: 0.25 mg/kg/injection, schedule: Q03HX024 (ip)) was 8 of 8. The survivor count (dose: 0.5 mg/kg/injection, schedule: Q01DX005 (ip)) was 6 of 6 and 8 of 8, the survivor count (dose: 0.5 mg/kg/injection, schedule: Q01DX009 (ip)) was 7 of 7 and 8 of 8 and the survivor count (dose: 0.5 mg/kg/injection, schedule: Q01DX009 (sc)) was 8 of 8. The survivor count (dose: 0.5 mg/kg/injection, schedule: Q03HX008 (ip)) was 7 of 8 and 8 of 8, the survivor count (dose: 0.5 mg/kg/injection, schedule: Q03HX016 (ip)) was 7 of 8 and 8 of 8 and the survivor count (dose: 0.5 mg/kg/injection, schedule: Q03HX024 (ip)) was 8 of 8. The survivor count (dose: 1.0 mg/kg/injection, schedule: Q01DX005 (ip)) was 8 of 8, the survivor count (dose: 1.0 mg/kg/injection, schedule: Q01DX009 (ip)) was 8 of 8 and the survivor count (dose: 1.0 mg/kg/injection, schedule: Q01DX009 (sc)) was 8 of 8. The survivor count (dose: 1.0 mg/kg/injection, schedule: Q03HX008 (ip)) was 8 of 8, the survivor count (dose: 1.0 mg/kg/injection, schedule: Q03HX016 (ip)) was 8 of 8 and the survivor count (dose: 1.0 mg/kg/injection, schedule: Q03HX024 (ip)) was 8 of 8. For the same compound, the survivor count (dose: 2.0 mg/kg/injection, schedule: Q01DX001 (sc)) was 8 of 8, the survivor count (dose: 2.0 mg/kg/injection, schedule: Q01DX005 (ip)) was 8 of 8 and the survivor count (dose: 2.0 mg/kg/injection, schedule: Q01DX009 (ip)) was 8 of 8. The survivor count (dose: 2.0 mg/kg/injection, schedule: Q01DX009 (sc)) was 8 of 8, the survivor count (dose: 2.0 mg/kg/injection, schedule: Q03HX008 (ip)) was 8 of 8 and the survivor count (dose: 2.0 mg/kg/injection, schedule: Q03HX016 (ip)) was 8 of 8. The survivor count (dose: 2.0 mg/kg/injection, schedule: Q03HX024 (ip)) was 7 of 8 and 8 of 8, the survivor count (dose: 2.0 mg/kg/injection, schedule: Q04DX003 (ip)) was 8 of 8 and the survivor count (dose: 2.0 mg/kg/injection, schedule: Q08DX002 (ip)) was 8 of 8. The survivor count (dose: 4.0 mg/kg/injection, schedule: Q01DX001 (ip)) was 8 of 8, the survivor count (dose: 4.0 mg/kg/injection, schedule: Q01DX001 (sc)) was 8 of 8 and the survivor count (dose: 4.0 mg/kg/injection, schedule: Q01DX005 (ip)) was 8 of 8. For the same compound, the survivor count (dose: 4.0 mg/kg/injection, schedule: Q01DX009 (ip)) was 8 of 8, the survivor count (dose: 4.0 mg/kg/injection, schedule: Q01DX009 (sc)) was 8 of 8 and the survivor count (dose: 4.0 mg/kg/injection, schedule: Q03HX008 (ip)) was 8 of 8. The survivor count (dose: 4.0 mg/kg/injection, schedule: Q03HX016 (ip)) was 7 of 8 and 8 of 8, the survivor count (dose: 4.0 mg/kg/injection, schedule: Q03HX024 (ip)) was 7 of 8 and 8 of 8 and the survivor count (dose: 4.0 mg/kg/injection, schedule: Q04DX003 (ip)) was 8 of 8. The survivor count (dose: 4.0 mg/kg/injection, schedule: Q08DX002 (ip)) was 8 of 8, the survivor count (dose: 8.0 mg/kg/injection, schedule: Q01DX001 (ip)) was 7 of 8 and 8 of 8 and the survivor count (dose: 8.0 mg/kg/injection, schedule: Q01DX001 (sc)) was 8 of 8. For the same compound, the survivor count (dose: 8.0 mg/kg/injection, schedule: Q01DX005 (ip)) was 5 of 7 and 8 of 8, the survivor count (dose: 8.0 mg/kg/injection, schedule: Q01DX009 (ip)) was 6 of 8 and the survivor count (dose: 8.0 mg/kg/injection, schedule: Q01DX009 (sc)) was 8 of 8. For the same compound, the survivor count (dose: 8.0 mg/kg/injection, schedule: Q03HX008 (ip)) was 0 of 8 and 6 of 8, the survivor count (dose: 8.0 mg/kg/injection, schedule: Q03HX016 (ip)) was 2 of 8 and 3 of 8 and the survivor count (dose: 8.0 mg/kg/injection, schedule: Q03HX024 (ip)) was 1 of 8 and 4 of 8. For the same compound, the survivor count (dose: 8.0 mg/kg/injection, schedule: Q04DX003 (ip)) was 1 of 8 and 8 of 8, the survivor count (dose: 8.0 mg/kg/injection, schedule: Q08DX002 (ip)) was 6 of 7 and 8 of 8 and the survivor count (dose: 16.0 mg/kg/injection, schedule: Q01DX001 (ip)) was 0 of 8 and 2 of 8. For the same compound, the survivor count (dose: 16.0 mg/kg/injection, schedule: Q01DX001 (sc)) was 8 of 8, the survivor count (dose: 16.0 mg/kg/injection, schedule: Q01DX005 (ip)) was 0 of 8 and the survivor count (dose: 16.0 mg/kg/injection, schedule: Q01DX009 (ip)) was 0 of 8 and 1 of 8. The survivor count (dose: 16.0 mg/kg/injection, schedule: Q01DX009 (sc)) was 8 of 8, the survivor count (dose: 16.0 mg/kg/injection, schedule: Q04DX003 (ip)) was 2 of 8 and 8 of 8 and the survivor count (dose: 16.0 mg/kg/injection, schedule: Q08DX002 (ip)) was 0 of 8. For the same compound, the survivor count (dose: 32.0 mg/kg/injection, schedule: Q01DX001 (ip)) was 0 of 8 and 1 of 8, the survivor count (dose: 32.0 mg/kg/injection, schedule: Q01DX001 (sc)) was 7 of 8 and 8 of 8 and the survivor count (dose: 32.0 mg/kg/injection, schedule: Q04DX003 (ip)) was 0 of 8 and 1 of 8. The survivor count (dose: 32.0 mg/kg/injection, schedule: Q08DX002 (ip)) was 0 of 8 and 1 of 8, the survivor count (dose: 64.0 mg/kg/injection, schedule: Q01DX001 (ip)) was 0 of 8 and the survivor count (dose: 64.0 mg/kg/injection, schedule: Q01DX001 (sc)) was 0 of 8 and 7 of 8. The survivor count (dose: 64.0 mg/kg/injection, schedule: Q04DX003 (ip)) was 0 of 8 and the survivor count (dose: 64.0 mg/kg/injection, schedule: Q08DX002 (ip)) was 0 of 8.
